The values below come from PubChem BioAssay AID2685 (National Center for Advancing Translational Sciences (NCATS), 2010).

Some of the results follow. Further columns of the screen follow, without active or inactive calls. Most of these compounds were active or inconclusive in the main read-out, so they are no random draw. Potencies come from curve fits of mixed quality, noted in brackets.

This experiment is described as follows: qHTS Assay for Lipid Storage Modulators in Drosophila S3 Cells.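 For cell number change: cells counted by Cell Tracker Red CMTPX staining in the red channel.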 The settings on record: BODIPY lipid droplet fluorescence, 18-24 h; for cell number change: measured here: cell count max response, cells fed with added oleic acid. The method in brief:
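Laser-scanning cytometry quantifies lipid droplet accumulation (500–530 nm total intensity; droplet/cell object ratio) in oleic acid-fed (400 uM added) Drosophila S3 cells treated with a concentration series. 20 uM Triacsin C defined 100% inhibition.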
(In qHTS, concentration-response curves come from the screen itself.)

[1] abbreviates: measured here: cell number channel AC50, cells fed with added oleic acid.
[2] abbreviates: measured here: lipid fluorescence (Fed channel) AC50, cells fed with added oleic acid.

A word on the AC50: it is the concentration giving half of the maximal activity seen. Lower therefore signals greater potency. For `Cc1ccccc1CS(=O)(=O)CCC(=O)NCCN1CCN(c2cccc(Cl)c2)CC1`, the cell number change was 8.48%. The half-maximal activity concentration (AC50) under setting [1] is 0.00651 µM [falling, full curve, poor fit]. Under setting [2], the AC50 is 0.0058 µM [falling, full curve, poor fit].
Take `CC1CCCCC1NC(=O)CN1c2cccc3cccc(c23)S1(=O)=O` (configuration not stated): the cell number change was -14.8%. Besides, the half-maximal activity concentration (AC50) under setting [2] was 7.31 µM [falling, partial curve].
On to `CCOC(=O)C(C)Oc1cccc2c(=O)n(CC(=O)NCCc3ccc(OC)c(OC)c3)ccc12` (configuration not stated), for which the cell number change is -61%. Moreover, the concentration at half-maximal activity (AC50) under setting [1] was 14.6 µM [falling, partial curve]. For the same compound, the half-maximal activity concentration (AC50) under setting [2] was 20.6 µM [falling, partial curve].
As to `CCS(=O)(=O)c1ccc2c(c1)N(S(C)(=O)=O)CC(C(=O)NC1CC1)O2` (configuration not stated), the cell number change is -9.64%. Moreover, the half-maximal activity concentration (AC50) under setting [1] is 2.59 µM [falling, single point].
`Cc1ccc(N=CC2=C(O)CC(c3cccc(Cl)c3)CC2=O)cc1` (configuration not stated): the cell number change is 40.9%. For the same compound, under setting [1], the AC50 is 6.51 µM [rising, single point]. For the same compound, under setting [2], the AC50 is 23.1 µM [rising, single point].
In the case of `COc1cccc(C(c2nnnn2CS(=O)(=O)c2ccc(C)cc2)N2CCN(C)CC2)c1OC` (configuration not stated), the cell number change stood at 5.31%. Further, the half-maximal activity concentration (AC50) under setting [2] was 0.0731 µM [falling, full curve, poor fit].
As to `O=C(Cn1cnc2ccccc21)c1ccccc1`, the cell number change was -27.4%. The AC50 under setting [2] was 20.6 µM [falling, single point].
With `C[C@@]12CCC=C[C@H]1[C@H](c1ccc(F)c(/C=C/c3ccccc3)c1)N(Cc1ccccc1)C2=O`, the cell number change stood at 11.6%. Moreover, the concentration at half-maximal activity (AC50) under setting [2] is 29.1 µM [rising, single point].
Consider `Cc1ccc(C(=O)N/N=C\c2ccccc2[N+](=O)[O-])cn1`, for which the cell number change was -16.8%. Further, the half-maximal activity concentration (AC50) under setting [1] is 0.082 µM [falling, full curve, poor fit]. The AC50 under setting [2] is 0.116 µM [falling, full curve, poor fit].
As to `C=CCNc1nc(-c2cccc(OC)c2O)nc2ccccc12`, the cell number change is -44.9%. Under setting [1], the AC50 was 23.1 µM [falling, single point]. Moreover, the half-maximal activity concentration (AC50) under setting [2] was 29.1 µM [falling, single point].
With `CC(=O)N1c2ccc([N+](=O)[O-])cc2NC(=O)CC1C` (configuration not stated), the cell number change is -13%. Further, the concentration at half-maximal activity (AC50) under setting [1] is 5.17 µM [rising, partial curve]. Besides, the AC50 under setting [2] is 4.61 µM [rising, partial curve].
For the compound `CCN(CC(=O)Nc1c(F)cccc1F)C(=O)c1ccc(Cl)c(S(=O)(=O)N2CCCC2)c1`, the cell number change is 40.5%. Further, under setting [1], the AC50 was 16.4 µM [rising, partial curve, poor fit].
On to `N#Cc1cc2c(nc1SCc1ccc(Cl)nc1)CCCCC2`, for which the cell number change stood at 10.4%. For the same compound, the concentration at half-maximal activity (AC50) under setting [2] was 3.66 µM [rising, partial curve].
As to `O=C(CN1CCN(Cc2ccccc2)CC1)N/N=C/C=C/c1ccccc1[N+](=O)[O-]`, the cell number change worked out at 17.2%. Further, the half-maximal activity concentration (AC50) under setting [2] was 2.59 µM [rising, partial curve].
Consider `O=C(c1cccc(OC2CCN(Cc3ccc(F)cc3)CC2)c1)N1CCCC1`, for which the cell number change is -0.872%. The AC50 under setting [2] is 29.1 µM [rising, single point].
As to `O=C(OCCCOC(=O)c1ccccc1O)c1ccccc1O`, the cell number change is -0.694%.
Consider `Cc1cc(NC(=O)NN2CCOCC2)nn1-c1c(Cl)cccc1Cl`, for which the cell number change was -0.963%. Also, the AC50 under setting [2] is 0.651 µM [falling, full curve, poor fit].
As to `COc1ccccc1OCC(=O)NCCC1=CCCCC1`, the cell number change is -23.8%. Also, the AC50 under setting [2] was 29.1 µM [rising, single point].
Regarding `Cc1c(C(=O)N/N=C/c2cccnc2)nnn1-c1nonc1N`, the cell number change was -6.76%. In addition, the half-maximal activity concentration (AC50) under setting [2] was 29.1 µM [rising, single point].
As to `Cc1cc(=O)[nH]c(CN2CCC(c3ccccc3)CC2)n1`, the cell number change is -10.2%. The concentration at half-maximal activity (AC50) under setting [1] is 0.103 µM [falling, full curve, poor fit]. Also, the AC50 under setting [2] is 0.146 µM [falling, full curve, poor fit].
Take `CCN(CC)CCOC(=O)c1c(C)oc2ccc(O)cc12`: the cell number change was -60.4%. In addition, the AC50 under setting [1] was 10.3 µM [falling, partial curve].
With `Cn1c(=O)c2c(nc(CN3CCN(CCO)CC3)n2CCc2ccccc2)n(C)c1=O`, the cell number change stood at 18.8%. Moreover, the AC50 under setting [2] was 5.17 µM [rising, partial curve, poor fit].
For `C/C(=C\C(=O)c1ccccc1)Nc1ccc(Br)c(Cl)c1`, the cell number change was -15.5%. The concentration at half-maximal activity (AC50) under setting [2] is 0.13 µM [falling, full curve, poor fit].
For the compound `O=C(N/N=C/c1cccnc1)c1ccc2ccccc2c1O`, the cell number change was found to be 19.5%. Also, the half-maximal activity concentration (AC50) under setting [2] is 29.1 µM [rising, single point].
For the compound `CCOC(=O)c1c(C)[nH]c(=S)c(C#N)c1-c1ccc(OC)cc1`, the cell number change amounted to 38.1%. Further, under setting [1], the half-maximal activity concentration (AC50) was 6.51 µM [rising, partial curve].
For `Cc1ccc(C(C)NC(=O)COC(=O)C2=COCCO2)cc1C` (configuration not stated), the cell number change was -46.4%. For the same compound, under setting [1], the AC50 was 29.1 µM [falling, single point].
With `CCNc1nc(Cl)nc(N(NC(C)=O)C(C)CC)n1` (configuration not stated), the cell number change is -47.2%. For the same compound, the half-maximal activity concentration (AC50) under setting [1] is 29.1 µM [falling, single point]. Further, the half-maximal activity concentration (AC50) under setting [2] is 29.1 µM [falling, single point].
Take `COc1ccc(Cn2c(CCC(=O)Nc3ccc(CC#N)cc3)nc3cccnc32)cc1`: the cell number change was -70.6%. Further, the AC50 under setting [1] is 29.1 µM [falling, single point].
For `Cc1ccc(NC(=O)CSc2nnc(-c3cc(C)[nH]n3)n2N)c(C)c1`, the cell number change is -5.42%.
As for `CCOc1ccc(N2C(=O)C3C4C=CC(CC4)C3C2=O)c([N+](=O)[O-])c1` (configuration not stated), the cell number change came out at 24.5%. Besides, the concentration at half-maximal activity (AC50) under setting [2] was 29.1 µM [rising, single point].
Consider `O=C(CCCC(=O)NCc1ccc(F)cc1)NCc1ccc(F)cc1`, for which the cell number change is 13.1%. Also, under setting [1], the AC50 was 6.51 µM [falling, single point]. The AC50 under setting [2] is 6.51 µM [falling, single point].
`Cn1c(=O)c(=O)n(C)c2cc(S(=O)(=O)N3CCCC3C(=O)NCc3cccnc3)ccc21` (configuration not stated): the cell number change was -30.2%. Moreover, the concentration at half-maximal activity (AC50) under setting [1] was 32.6 µM [falling, single point]. The AC50 under setting [2] is 9.2 µM [falling, single point].
As for `O=C(c1cccnc1)N1CCN(Cc2cccc(F)c2)CC1`, the cell number change is 63.4%. Also, the concentration at half-maximal activity (AC50) under setting [1] is 9.2 µM [rising, partial curve]. Besides, the half-maximal activity concentration (AC50) under setting [2] was 1.84 µM [rising, partial curve].
Consider `NC(=O)CN(C/C=C/c1ccccc1)C/C=C/c1ccccc1`, for which the cell number change is -1.59%. Besides, the AC50 under setting [1] is 0.0651 µM [rising, full curve, poor fit].
With `CCS(=O)(=O)Nc1cccc(C2=NN(S(C)(=O)=O)C(c3cccs3)C2)c1` (configuration not stated), the cell number change was -8.26%. For the same compound, under setting [2], the AC50 is 20.6 µM [rising, single point].
With `O=C(Oc1ccc2c(=O)c(Oc3ccc4ccccc4c3)coc2c1)c1cncc(Br)c1`, the cell number change was -59.8%. Moreover, the half-maximal activity concentration (AC50) under setting [1] was 2.91 µM [falling, full curve].
Turning to `Cc1cc(C)cc(NC(=S)NCCc2c[nH]c3ccccc23)c1`, the cell number change came out at 14.6%. Further, the AC50 under setting [2] is 5.8 µM [rising, partial curve].
Take `Cc1ccccc1NC(=O)CCC(=O)N/N=C/c1cccnc1`: the cell number change stood at 14.7%.
Turning to `O=C(COC(=O)c1ccc(S(=O)(=O)N2CCCC2)cc1)Nc1cccc(Cl)c1`, the cell number change was -11.2%. Moreover, the half-maximal activity concentration (AC50) under setting [2] is 0.461 µM [falling, single point].
Turning to `COc1ccc(CN2CCN(C(=O)CCC(=O)c3ccc(C)s3)CC2)cc1OC`, the cell number change came to 7.1%. The half-maximal activity concentration (AC50) under setting [2] is 6.51 µM [rising, partial curve, poor fit].
On to `Cc1cc(-c2nc(C)c(C(=O)NNS(=O)(=O)c3ccc(Cl)cc3Cl)s2)no1`, for which the cell number change amounted to 15.3%. Moreover, the concentration at half-maximal activity (AC50) under setting [1] is 0.58 µM [falling, full curve].
For `COc1ccc([C@@H]2[C@@H]3C(=O)N(C(C)(C)C)C(=O)[C@@H]3[C@]3(Cc4ccccc4)C(=O)N(c4ccc(C)cc4)C(=O)N23)cc1`, the cell number change was -0.33%. In addition, the AC50 under setting [1] is 6.51 µM [falling, single point]. For the same compound, the AC50 under setting [2] was 6.51 µM [falling, single point].
As for `Cn1nc(C(=O)N2CCN(c3ccc(F)cc3)CC2)c2c1-c1ccccc1S(=O)(=O)C2`, the concentration at half-maximal activity (AC50) under setting [2] is 0.116 µM [rising, single point].
As to `CC1CC(C)CN(C(=O)c2ccc3nc[nH]c3c2)C1` (configuration not stated), the cell number change turned out to be 31.9%. The AC50 under setting [1] was 10.3 µM [rising, partial curve, poor fit].
As to `CCCn1c(N)c(C(=O)CSc2nnc(-c3ccoc3C)n2C)c(=O)n(C)c1=O`, the cell number change is -18.7%. For the same compound, the half-maximal activity concentration (AC50) under setting [2] is 0.58 µM [falling, partial curve, poor fit].
On to `O=C(CCc1c[nH]c2ccccc12)NCc1cccc(Cl)c1`, for which the cell number change was -1.68%.
In the case of `Clc1cccc(-c2ccc3ncnc(NCc4cccnc4)c3c2)c1`, the cell number change is -58.3%. Further, the half-maximal activity concentration (AC50) under setting [1] is 13 µM [falling, partial curve]. Moreover, the concentration at half-maximal activity (AC50) under setting [2] was 13 µM [falling, partial curve, poor fit].
Regarding `COc1ccc(C2CC(=O)c3c(ccc4ccccc34)N2)cc1OC` (configuration not stated), the cell number change was -13.7%. Besides, the AC50 under setting [2] was 6.51 µM [rising, single point].
As for `CC(=O)C1=C(C)NC(SCC(=O)Nc2nccs2)=C(C#N)C1c1ccccc1Cl` (configuration not stated), the cell number change was 4.6%. Besides, the AC50 under setting [2] was 0.517 µM [rising, partial curve, poor fit].
On to `Cc1ccc(NC(=O)CN(C)C(=O)c2ccccc2Sc2ccccc2C#N)cc1`, for which, under setting [2], the AC50 is 6.51 µM [falling, single point].
For `Cc1cc(Nc2cccc([N+](=O)[O-])c2)c2ccccc2n1`, the cell number change was -17.9%. Further, the half-maximal activity concentration (AC50) under setting [2] is 1.16 µM [falling, full curve].
In the case of `Cc1cc(C)n2nc(C(=O)OCC(=O)c3cc(C)n(CC4CCCO4)c3C)nc2n1` (configuration not stated), the cell number change was 28.1%.
For `Cc1ccccc1C(=O)N1CCC(C(=O)Nc2ccc(S(=O)(=O)N3CCCC3)cc2)CC1`, the concentration at half-maximal activity (AC50) is, setting by setting: under setting [1], 4.11 µM [falling, single point]; under setting [2], 6.51 µM [falling, single point].
On to `CCN(CC(=O)Nc1c(F)cccc1F)C(=O)c1ccc2c(=O)n3c(nc2c1)CCC3`, for which the cell number change is -25%. The half-maximal activity concentration (AC50) under setting [1] was 3.66 µM [falling, full curve, poor fit]. Under setting [2], the half-maximal activity concentration (AC50) was 6.51 µM [rising, single point].
In the case of `COc1cccc(C(=O)OCC(=O)c2ccc(Br)s2)c1OC`, the cell number change is -11%. Further, under setting [2], the concentration at half-maximal activity (AC50) was 6.51 µM [rising, single point].
